Test results taken from PubChem BioAssay AID540275 (National Center for Advancing Translational Sciences (NCATS), 2011).
Out of some 320,000 compounds screened, about 620 (0.19%) were called active. Inconclusive means that the source gave no clear call. Such entries were picked first, then a sample of the others. No stated cut-off is given here; in the data, active means activation above about 80%; inconclusive means between about 30% and that limit; inactive means weaker than that.

Protein sequences, listed by entry. Tags and fused reporters are not part of them.
UniProt Q8NER1, whole entry, looked up: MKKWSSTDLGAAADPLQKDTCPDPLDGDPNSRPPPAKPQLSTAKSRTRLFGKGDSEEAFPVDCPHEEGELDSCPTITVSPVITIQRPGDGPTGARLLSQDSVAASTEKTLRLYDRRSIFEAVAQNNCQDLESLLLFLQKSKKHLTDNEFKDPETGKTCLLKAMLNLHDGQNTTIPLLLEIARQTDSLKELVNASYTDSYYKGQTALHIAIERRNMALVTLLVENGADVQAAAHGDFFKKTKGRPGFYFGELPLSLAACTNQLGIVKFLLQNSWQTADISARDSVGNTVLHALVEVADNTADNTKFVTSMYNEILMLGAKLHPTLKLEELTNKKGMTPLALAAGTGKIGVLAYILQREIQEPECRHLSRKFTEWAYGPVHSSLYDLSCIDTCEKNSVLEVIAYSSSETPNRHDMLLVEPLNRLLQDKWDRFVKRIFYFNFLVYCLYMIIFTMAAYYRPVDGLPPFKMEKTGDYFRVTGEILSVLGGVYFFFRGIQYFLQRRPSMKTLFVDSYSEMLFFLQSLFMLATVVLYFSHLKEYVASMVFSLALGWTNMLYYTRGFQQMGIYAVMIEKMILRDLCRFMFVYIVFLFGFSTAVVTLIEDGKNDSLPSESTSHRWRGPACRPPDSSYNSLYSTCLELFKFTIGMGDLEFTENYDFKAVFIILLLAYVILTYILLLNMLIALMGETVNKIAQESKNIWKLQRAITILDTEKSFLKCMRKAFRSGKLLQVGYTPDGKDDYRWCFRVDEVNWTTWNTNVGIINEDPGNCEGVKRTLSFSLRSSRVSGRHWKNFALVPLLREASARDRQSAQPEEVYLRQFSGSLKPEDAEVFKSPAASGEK

What follows are molecules tested against Transient receptor potential cation channel subfamily V member 1 (Homo sapiens) (UniProt Q8NER1) (assay: HTS Assay for Compounds that Act as Agonists of the Vanilloid Receptor 1). Details: TRPV1-expressing cells, Fluo-8 calcium influx, agonist mode; at 8.33 µM, active compounds read high.
Method in brief: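 Cells expressing TRPV1 were dye-loaded with Fluo-8 and read kinetically: 10 s baseline, 3 min after compound (agonist portion), then 2 min after EC20 capsaicin (allosteric enhancer portion). Calcium-bound dye fluorescence at 480/520 nm.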
Further: 0% is about no effect.

| Compound | activation |
| --- | --- |
| COc1cc(C2C3CN(C)CC=C3C(C#N)=C(N)C2(C#N)C#N)ccc1OC(C)C (centres undefined) | inactive: -2.55% |
| Cc1cc2c(NC(=O)Nc3ccc(C(C)(C)C)cc3)cccc2nn1 | active: 114% |
| CC1CCCN(c2ccc(C(=O)NCC3CCCO3)cn2)C1 (centres undefined) | inconclusive: 30.5% |
| CC(C)CN1C(=O)c2ccc(C(=O)Nc3ccncc3)cc2C1=O | inconclusive: 63% |
| Cc1cccc(NC(=O)C23CCC(C)(C(=O)O2)C3(C)C)c1 (centres undefined) | inactive: -3.09% |
| Oc1[nH]c(N=C2N=c3ccccc3=N2)c2ccccc12 | inconclusive: 65.5% |
| CSCC[C@H](NC(=O)Cc1c(C)c2c(cc(C)c3c(C)c(C)oc32)oc1=O)C(=O)O | inconclusive: 44.1% |
| Cc1ccc(Cn2c(=N)c(C(=O)NCC3CCCO3)cc3c(=O)n4cccc(C)c4nc32)cc1 (centres undefined) | active: 81.8% |
| CCC(C)NC(=O)c1cc(Cl)c(NC(=O)C2=C(C)OCCS2)cc1OC (centres undefined) | inconclusive: 38.1% |
| CC(C)Cc1cc(C(=O)N2CCCC(C(=O)c3cc(F)ccc3F)C2)n(C)n1 (centres undefined) | inconclusive: 34.9% |
| COc1ccc(/C=N/NC(=O)c2ccc3c(c2)OCO3)c(C(=O)O)c1OC | active: 80.1% |
| COc1ccc(C(=O)CNc2ccc3ccccc3c2)cc1 | inconclusive: 30.6% |
| O=c1c2cc(Cl)ccc2nc(-c2ccc(Cl)c(Cl)c2)n1O | inactive: 16.4% |
| CCNC(=O)Nc1ccc(-n2nc(C)c(C(=O)OCC)c2C)nc1 | inactive: -1.53% |
| Cc1ccc(S(=O)(=O)N(CC(=O)N2CCC(C(N)=O)CC2)c2cccc(C(F)(F)F)c2)cc1 | inconclusive: 50.8% |
| Cc1cc(=O)[nH]c(SCc2csc(-c3ccccc3)n2)n1 | inconclusive: 67.6% |
| COc1c(C)oc2cc(O)ccc2c1=O | inactive: 1.84% |
| CCC1(c2ccccc2)C(=O)N(C(=O)OC(C)(C)C)N1C(=O)OC(C)(C)C (centres undefined) | inconclusive: 36.9% |
| c1ccc(-c2ccccc2OCc2nnc3n2CCC3)cc1 | inactive: -0.508% |
| CCc1cccc2cc3c(N)c(C(=O)Nc4ccc(S(=O)(=O)N5CCCC5)cc4)sc3nc12 | inactive: 5.21% |
| CN(C)C(=O)/C=C\c1cn(-c2ccccc2)nc1-c1ccc2c(c1)OCCO2 | inconclusive: 56.9% |
| Cc1cc(NC(=O)c2cnn3c(C(F)(F)F)cc(-c4ccccc4)nc23)no1 | inconclusive: 47.4% |

| Compound | activation |
| --- | --- |
| C[C@@H](NC(=O)c1[nH]cnc1C(=O)Nc1ccccc1)c1ccccc1 | inconclusive: 32.3% |
| Cc1cccc(N2CCN(C(=O)c3ccccc3OCc3c(C)noc3C)CC2)c1C | inconclusive: 43.1% |
| CCN(CCNC(=O)c1ccc(C#N)cc1)c1cccc(C)c1 | active: 91% |
| Cc1cc(C)c(S(=O)(=O)Nc2ncn[nH]2)cc1C | inactive: 0.135% |
| N=c1nc(N)nc2n1NC(c1ccc(F)cc1)=CS2 | inconclusive: 49.9% |
| CCCn1nc(C(=O)NC2CCCCCC2)c2ccccc2c1=O | inconclusive: 30.5% |
| CCc1ccc2oc(-c3ccc(OC)cc3)cc(=Nc3c(C)n(C)n(-c4ccccc4)c3=O)c2c1 | inconclusive: 48% |
| CCNC(=O)c1ccc(CSc2ccc(Cl)cc2)cc1 | inconclusive: 30.5% |
| Cc1ccc(SC(C)C(=O)Nc2cccc(N(C)S(C)(=O)=O)c2)cc1 (centres undefined) | inconclusive: 59.8% |
| O=C(Nc1ccc(Cc2ccncc2)cc1)c1ccc(N2CCOCC2)c([N+](=O)[O-])c1 | inconclusive: 38.9% |
| CCOc1ccc(NC(=O)c2ccc3nccnc3c2)cc1 | inconclusive: 35.3% |
| CCC(Sc1nc2cc3c(cc2c(=O)n1Cc1ccco1)OCO3)C(=O)Nc1cccc(OC)c1 (centres undefined) | inconclusive: 35.3% |
| Cc1ccc(-n2cc(S(=O)(=O)c3ccc(C)cc3)[nH]c2=O)cc1 | inconclusive: 32.1% |
| COc1cc(/C=C2\SC(=S)N(NC(=O)c3ccc(O)cc3)C2=O)ccc1O | inconclusive: 40.3% |
| c1ccc(OCc2nnc3n2N=C(c2ccccc2)CS3)cc1 | inconclusive: 40.6% |
| CCc1ccc2c(c1)[C@]1(C(=O)N2)[C@@H]2C(=O)N(Cc3ccccc3)C(=O)[C@@H]2[C@@H]2CCCN21 | inconclusive: 38% |
| Cc1ccc(C(C(=O)NC2CCCC2)N2CCc3ccccc32)cc1 (centres undefined) | inconclusive: 32.5% |
| COc1ccc(Oc2nccc(-c3ccc(F)cc3)c2C#N)cc1 | inactive: 4.33% |
| COc1ccc(NC(=O)c2ccc(COCC(F)(F)C(F)F)cc2)cc1 | inconclusive: 62.1% |
| Fc1ccc(Nc2nc(NCc3ccco3)c3ccccc3n2)cc1 | inactive: -6.26% |
| O=P(OC1CCCCC1)(OC1CCCCC1)C(Nc1ccccc1)c1cccnc1 (centres undefined) | inconclusive: 49.1% |
| O=C(N/N=C/c1cc([N+](=O)[O-])ccc1N1CCCCCC1)c1ccccn1 | inconclusive: 33.7% |

Arranged by number of heavy atoms (ascending): part of the list above.

| Compound | activation |
| --- | --- |
| Cc1ccc(C(C(=O)NC2CCCC2)N2CCc3ccccc32)cc1 (centres undefined) | inconclusive: 32.5% |
| COc1ccc(NC(=O)c2ccc(COCC(F)(F)C(F)F)cc2)cc1 | inconclusive: 62.1% |
| CCC(Sc1nc2cc3c(cc2c(=O)n1Cc1ccco1)OCO3)C(=O)Nc1cccc(OC)c1 (centres undefined) | inconclusive: 35.3% |
